# Source: PubChem BioAssay AID651947 (Broad Institute, 2012)
# Inconclusive results, whose numbers are uncertain, are shown.
# Assay: cytotoxicity in HepG2 cells, dose response, cytotoxicity control, cell-based, plate reader, dry powder (AID 651947)
# Details: HepG2 viability, ATP luminescence (CellTiter-Glo), 48 h; at 6 µM; hits give low values;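 active = luminescence drop in HepG2 cells whose fitted half-effect dose is at most twice the top valid dose; inconclusive = flat curve with 30 to 70% signal loss, or unreliable fit; inactive = the rest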
smiles,measurement,value
Fc1ccc(Cn2cc(CSc3nnc(-c4ccc(Cl)cc4)o3)nn2)cc1,max activity,inconclusive: -55.8%
